# Experimental data reported in PMC5906670, “Structural basis of epilepsy-related ligand–receptor complex LGI1–ADAM22” (Nature Communications, 2018).
# Protein sequences, listed by entry. Tags and fused reporters are not part of them. Lines headed by an entry give the natural chain unless they say otherwise; changes in a name come on top.
# UniProt O75077: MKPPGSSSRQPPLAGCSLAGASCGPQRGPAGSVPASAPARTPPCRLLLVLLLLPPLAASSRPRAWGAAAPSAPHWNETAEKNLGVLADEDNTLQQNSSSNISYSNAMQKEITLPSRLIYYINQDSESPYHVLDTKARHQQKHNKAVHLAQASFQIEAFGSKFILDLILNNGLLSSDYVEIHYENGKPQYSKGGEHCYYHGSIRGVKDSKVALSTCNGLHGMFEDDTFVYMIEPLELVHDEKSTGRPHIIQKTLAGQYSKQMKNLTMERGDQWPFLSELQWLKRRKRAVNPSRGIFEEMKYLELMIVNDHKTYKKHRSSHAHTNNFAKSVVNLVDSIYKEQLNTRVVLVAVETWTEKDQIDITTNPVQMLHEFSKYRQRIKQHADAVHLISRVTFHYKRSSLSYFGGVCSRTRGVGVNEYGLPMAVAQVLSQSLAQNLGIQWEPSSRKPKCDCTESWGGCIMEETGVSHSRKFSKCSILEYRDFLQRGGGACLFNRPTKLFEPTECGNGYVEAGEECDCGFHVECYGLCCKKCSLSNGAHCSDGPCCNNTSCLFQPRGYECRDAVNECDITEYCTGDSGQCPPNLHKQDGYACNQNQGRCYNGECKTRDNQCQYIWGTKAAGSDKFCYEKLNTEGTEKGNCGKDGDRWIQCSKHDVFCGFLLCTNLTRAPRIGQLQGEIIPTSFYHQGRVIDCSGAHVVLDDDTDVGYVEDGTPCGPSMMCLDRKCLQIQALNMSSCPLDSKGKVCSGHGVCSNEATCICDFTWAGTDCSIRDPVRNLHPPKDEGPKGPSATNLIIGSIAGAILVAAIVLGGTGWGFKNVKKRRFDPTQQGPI
# Target: ADAM23 ECD-FLAG (human) (UniProt O75077)
# Assay: pull-down; culture media of HEK293T cells with LGI1 (wild type or mutant) and ADAM22 ECD-FLAG or ADAM23 ECD-FLAG mixed for 1 h at 4 °C; pulled down with anti-FLAG M2 agarose; Western blot with anti-FLAG and anti-LGI1
row,Binder,binding
1,"LGI1 (wild type, pull-down with ADAM22/23 ECD-FLAG) (ligand, UniProt O95970-1 35-557) KKPAKPKCPAVCTCTKDNALCENARSIPRTVPPDVISLSFVRSGFTEISEGSFLFTPSLQLLLFTSNSFDVISDDAFIGLPHLEYLFIENNNIKSISRHTFRGLKSLIHLSLANNNLQTLPKDIFKGLDSLTNVDLRGNSFNCDCKLKWLVEWLGHTNATVEDIYCEGPPEYKKRKINSLSSKDFDCIITEFAKSQDLPYQSLSIDTFSYLNDEYVVIAQPFTGKCIFLEWDHVEKTFRNYDNITGTSTVVCKPIVIETQLYVIVAQLFGGSHIYKRDSFANKFIKIQDIEILKIRKPNDIETFKIENNWYFVVADSSKAGFTTIYKWNGNGFYSHQSLHAWYRDTDVEYLEIVRTPQTLRTPHLILSSSSQRPVIYQWNKATQLFTNQTDIPNMEDVYAVKHFSVKGDVYICLTRFIGDSKVMKWGGSSFQDIQRMPSRGSMVFQPLQINNYQYAILGSDYSFTQVYNWDAEKAKFVKFQELNVQAPRSFTHVSINKRNFLFASSFKGNTQIYKHVIVDLSA",binds
2,"LGI1 K331A (ligand, UniProt O95970-1 35-557) KKPAKPKCPAVCTCTKDNALCENARSIPRTVPPDVISLSFVRSGFTEISEGSFLFTPSLQLLLFTSNSFDVISDDAFIGLPHLEYLFIENNNIKSISRHTFRGLKSLIHLSLANNNLQTLPKDIFKGLDSLTNVDLRGNSFNCDCKLKWLVEWLGHTNATVEDIYCEGPPEYKKRKINSLSSKDFDCIITEFAKSQDLPYQSLSIDTFSYLNDEYVVIAQPFTGKCIFLEWDHVEKTFRNYDNITGTSTVVCKPIVIETQLYVIVAQLFGGSHIYKRDSFANKFIKIQDIEILKIRAPNDIETFKIENNWYFVVADSSKAGFTTIYKWNGNGFYSHQSLHAWYRDTDVEYLEIVRTPQTLRTPHLILSSSSQRPVIYQWNKATQLFTNQTDIPNMEDVYAVKHFSVKGDVYICLTRFIGDSKVMKWGGSSFQDIQRMPSRGSMVFQPLQINNYQYAILGSDYSFTQVYNWDAEKAKFVKFQELNVQAPRSFTHVSINKRNFLFASSFKGNTQIYKHVIVDLSA",binds
3,"LGI1 M477A (ligand, UniProt O95970-1 35-557) KKPAKPKCPAVCTCTKDNALCENARSIPRTVPPDVISLSFVRSGFTEISEGSFLFTPSLQLLLFTSNSFDVISDDAFIGLPHLEYLFIENNNIKSISRHTFRGLKSLIHLSLANNNLQTLPKDIFKGLDSLTNVDLRGNSFNCDCKLKWLVEWLGHTNATVEDIYCEGPPEYKKRKINSLSSKDFDCIITEFAKSQDLPYQSLSIDTFSYLNDEYVVIAQPFTGKCIFLEWDHVEKTFRNYDNITGTSTVVCKPIVIETQLYVIVAQLFGGSHIYKRDSFANKFIKIQDIEILKIRKPNDIETFKIENNWYFVVADSSKAGFTTIYKWNGNGFYSHQSLHAWYRDTDVEYLEIVRTPQTLRTPHLILSSSSQRPVIYQWNKATQLFTNQTDIPNMEDVYAVKHFSVKGDVYICLTRFIGDSKVMKWGGSSFQDIQRMPSRGSAVFQPLQINNYQYAILGSDYSFTQVYNWDAEKAKFVKFQELNVQAPRSFTHVSINKRNFLFASSFKGNTQIYKHVIVDLSA",binds weakly
4,"LGI1 R330A (ligand, UniProt O95970-1 35-557) KKPAKPKCPAVCTCTKDNALCENARSIPRTVPPDVISLSFVRSGFTEISEGSFLFTPSLQLLLFTSNSFDVISDDAFIGLPHLEYLFIENNNIKSISRHTFRGLKSLIHLSLANNNLQTLPKDIFKGLDSLTNVDLRGNSFNCDCKLKWLVEWLGHTNATVEDIYCEGPPEYKKRKINSLSSKDFDCIITEFAKSQDLPYQSLSIDTFSYLNDEYVVIAQPFTGKCIFLEWDHVEKTFRNYDNITGTSTVVCKPIVIETQLYVIVAQLFGGSHIYKRDSFANKFIKIQDIEILKIAKPNDIETFKIENNWYFVVADSSKAGFTTIYKWNGNGFYSHQSLHAWYRDTDVEYLEIVRTPQTLRTPHLILSSSSQRPVIYQWNKATQLFTNQTDIPNMEDVYAVKHFSVKGDVYICLTRFIGDSKVMKWGGSSFQDIQRMPSRGSMVFQPLQINNYQYAILGSDYSFTQVYNWDAEKAKFVKFQELNVQAPRSFTHVSINKRNFLFASSFKGNTQIYKHVIVDLSA",binds
5,"full-length LGI1 (residues 37–557), C-terminal His6 (ligand, human, UniProt O95970-1 37-557, looked up, LGI1, human, cDNA NM_005097; 'full length, residues 37–557' (without the signal peptide); PDB 5Y31 holds the R470A mutant of the same limits; also called LGI1^WT; source: Expi293F, transient, co-expressed with non-tagged ADAM22 ECD; purified from culture medium (Ni-NTA, SEC)) PAKPKCPAVCTCTKDNALCENARSIPRTVPPDVISLSFVRSGFTEISEGSFLFTPSLQLLLFTSNSFDVISDDAFIGLPHLEYLFIENNNIKSISRHTFRGLKSLIHLSLANNNLQTLPKDIFKGLDSLTNVDLRGNSFNCDCKLKWLVEWLGHTNATVEDIYCEGPPEYKKRKINSLSSKDFDCIITEFAKSQDLPYQSLSIDTFSYLNDEYVVIAQPFTGKCIFLEWDHVEKTFRNYDNITGTSTVVCKPIVIETQLYVIVAQLFGGSHIYKRDSFANKFIKIQDIEILKIRKPNDIETFKIENNWYFVVADSSKAGFTTIYKWNGNGFYSHQSLHAWYRDTDVEYLEIVRTPQTLRTPHLILSSSSQRPVIYQWNKATQLFTNQTDIPNMEDVYAVKHFSVKGDVYICLTRFIGDSKVMKWGGSSFQDIQRMPSRGSMVFQPLQINNYQYAILGSDYSFTQVYNWDAEKAKFVKFQELNVQAPRSFTHVSINKRNFLFASSFKGNTQIYKHVIVDLSA",binds

# Now from value to binder:
row,binding,Binder
1,binds weakly,"LGI1 R330A K331A (ligand, UniProt O95970-1 35-557) KKPAKPKCPAVCTCTKDNALCENARSIPRTVPPDVISLSFVRSGFTEISEGSFLFTPSLQLLLFTSNSFDVISDDAFIGLPHLEYLFIENNNIKSISRHTFRGLKSLIHLSLANNNLQTLPKDIFKGLDSLTNVDLRGNSFNCDCKLKWLVEWLGHTNATVEDIYCEGPPEYKKRKINSLSSKDFDCIITEFAKSQDLPYQSLSIDTFSYLNDEYVVIAQPFTGKCIFLEWDHVEKTFRNYDNITGTSTVVCKPIVIETQLYVIVAQLFGGSHIYKRDSFANKFIKIQDIEILKIAAPNDIETFKIENNWYFVVADSSKAGFTTIYKWNGNGFYSHQSLHAWYRDTDVEYLEIVRTPQTLRTPHLILSSSSQRPVIYQWNKATQLFTNQTDIPNMEDVYAVKHFSVKGDVYICLTRFIGDSKVMKWGGSSFQDIQRMPSRGSMVFQPLQINNYQYAILGSDYSFTQVYNWDAEKAKFVKFQELNVQAPRSFTHVSINKRNFLFASSFKGNTQIYKHVIVDLSA"
2,binds,"LGI1 R470A (pull-down) (ligand, UniProt O95970-1 35-557) KKPAKPKCPAVCTCTKDNALCENARSIPRTVPPDVISLSFVRSGFTEISEGSFLFTPSLQLLLFTSNSFDVISDDAFIGLPHLEYLFIENNNIKSISRHTFRGLKSLIHLSLANNNLQTLPKDIFKGLDSLTNVDLRGNSFNCDCKLKWLVEWLGHTNATVEDIYCEGPPEYKKRKINSLSSKDFDCIITEFAKSQDLPYQSLSIDTFSYLNDEYVVIAQPFTGKCIFLEWDHVEKTFRNYDNITGTSTVVCKPIVIETQLYVIVAQLFGGSHIYKRDSFANKFIKIQDIEILKIRKPNDIETFKIENNWYFVVADSSKAGFTTIYKWNGNGFYSHQSLHAWYRDTDVEYLEIVRTPQTLRTPHLILSSSSQRPVIYQWNKATQLFTNQTDIPNMEDVYAVKHFSVKGDVYICLTRFIGDSKVMKWGGSSFQDIQAMPSRGSMVFQPLQINNYQYAILGSDYSFTQVYNWDAEKAKFVKFQELNVQAPRSFTHVSINKRNFLFASSFKGNTQIYKHVIVDLSA"
3,binds weakly,"LGI1 Y433A (ligand, UniProt O95970-1 35-557) KKPAKPKCPAVCTCTKDNALCENARSIPRTVPPDVISLSFVRSGFTEISEGSFLFTPSLQLLLFTSNSFDVISDDAFIGLPHLEYLFIENNNIKSISRHTFRGLKSLIHLSLANNNLQTLPKDIFKGLDSLTNVDLRGNSFNCDCKLKWLVEWLGHTNATVEDIYCEGPPEYKKRKINSLSSKDFDCIITEFAKSQDLPYQSLSIDTFSYLNDEYVVIAQPFTGKCIFLEWDHVEKTFRNYDNITGTSTVVCKPIVIETQLYVIVAQLFGGSHIYKRDSFANKFIKIQDIEILKIRKPNDIETFKIENNWYFVVADSSKAGFTTIYKWNGNGFYSHQSLHAWYRDTDVEYLEIVRTPQTLRTPHLILSSSSQRPVIYQWNKATQLFTNQTDIPNMEDVAAVKHFSVKGDVYICLTRFIGDSKVMKWGGSSFQDIQRMPSRGSMVFQPLQINNYQYAILGSDYSFTQVYNWDAEKAKFVKFQELNVQAPRSFTHVSINKRNFLFASSFKGNTQIYKHVIVDLSA"
4,binds,"LGI1 R407C (pull-down in vitro) (ligand, UniProt O95970-1 35-557) KKPAKPKCPAVCTCTKDNALCENARSIPRTVPPDVISLSFVRSGFTEISEGSFLFTPSLQLLLFTSNSFDVISDDAFIGLPHLEYLFIENNNIKSISRHTFRGLKSLIHLSLANNNLQTLPKDIFKGLDSLTNVDLRGNSFNCDCKLKWLVEWLGHTNATVEDIYCEGPPEYKKRKINSLSSKDFDCIITEFAKSQDLPYQSLSIDTFSYLNDEYVVIAQPFTGKCIFLEWDHVEKTFRNYDNITGTSTVVCKPIVIETQLYVIVAQLFGGSHIYKRDSFANKFIKIQDIEILKIRKPNDIETFKIENNWYFVVADSSKAGFTTIYKWNGNGFYSHQSLHAWYRDTDVEYLEIVRTPQTLRTPHLILSSSSQCPVIYQWNKATQLFTNQTDIPNMEDVYAVKHFSVKGDVYICLTRFIGDSKVMKWGGSSFQDIQRMPSRGSMVFQPLQINNYQYAILGSDYSFTQVYNWDAEKAKFVKFQELNVQAPRSFTHVSINKRNFLFASSFKGNTQIYKHVIVDLSA"
5,binds,"LGI1^R474Q (residues 37–557), C-terminal His6 (ligand, human, UniProt O95970-1 37-557, looked up, LGI1, human, cDNA NM_005097, residues 37-557; R474Q is a human ADLTE mutation; source: Expi293F, transient, co-expressed with ADAM22 ECD; purified as the complex (Ni-NTA, SEC)) PAKPKCPAVCTCTKDNALCENARSIPRTVPPDVISLSFVRSGFTEISEGSFLFTPSLQLLLFTSNSFDVISDDAFIGLPHLEYLFIENNNIKSISRHTFRGLKSLIHLSLANNNLQTLPKDIFKGLDSLTNVDLRGNSFNCDCKLKWLVEWLGHTNATVEDIYCEGPPEYKKRKINSLSSKDFDCIITEFAKSQDLPYQSLSIDTFSYLNDEYVVIAQPFTGKCIFLEWDHVEKTFRNYDNITGTSTVVCKPIVIETQLYVIVAQLFGGSHIYKRDSFANKFIKIQDIEILKIRKPNDIETFKIENNWYFVVADSSKAGFTTIYKWNGNGFYSHQSLHAWYRDTDVEYLEIVRTPQTLRTPHLILSSSSQRPVIYQWNKATQLFTNQTDIPNMEDVYAVKHFSVKGDVYICLTRFIGDSKVMKWGGSSFQDIQRMPSQGSMVFQPLQINNYQYAILGSDYSFTQVYNWDAEKAKFVKFQELNVQAPRSFTHVSINKRNFLFASSFKGNTQIYKHVIVDLSA"

# Results are given in words; binding and its absence hold for the method and conditions named. Binding seen in cells or lysates may run through a third protein. A result given as binding can be weak or reduced; the word gives no strength. Sequences can lack the tags named with a protein.
